Measured values taken from patent publication US20250353920A1 (SUBDOMAIN, published 2025).
Results are given in words; binding and its absence hold for the method and conditions named. Some entries that bind do so weakly or less than the wild type.

Chains of the proteins cited; added tags and fusions are not shown. Lines headed by an entry give the natural chain unless they say otherwise; changes in a name come on top. A line that says so, or that is headed by a name, gives the form on record, which may keep a tag or linker.
cynomolgus PD-L1 (cynomolgus (Macaca fascicularis)) (G7PSE7, form named): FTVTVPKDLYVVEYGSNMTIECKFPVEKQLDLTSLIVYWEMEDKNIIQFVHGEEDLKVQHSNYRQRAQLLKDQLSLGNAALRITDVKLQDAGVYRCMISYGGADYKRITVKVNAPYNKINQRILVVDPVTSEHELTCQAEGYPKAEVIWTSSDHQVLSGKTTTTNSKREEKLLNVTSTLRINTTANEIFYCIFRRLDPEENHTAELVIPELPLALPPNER

Target: cynomolgus PD-L1 (cynomolgus (Macaca fascicularis)) (UniProt G7PSE7)
Assay: flow cytometry

binding: binds
B1: CAR comprising a DBDpp (pb04) (protein, not shown: small tags and cut ends)
chain: MGSWYEFTVRLEAIHERLKALGGSEAELAAFEKEIAAFESELQAYKGKGNPEVEILRDDAAFIRRFLQAYRHN
